Record: PubChem BioAssay AID504786 (Drosophila RNAi Screening Center, 2011)
The screen tested about 21,000 reagents; below is an unselected part of those that have a named target and a result. 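Primary screen; positive scores mean lost reporter signal, so the sign may be inverted from the usual convention.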 Names joined by + are all predicted targets of the reagent.

Aim: 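Fly genes required for HIF-dependent transcription when hypoxia is mimicked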 (primary screen)
Cell system: Drosophila S2 cells with a stable HIF luciferase reporter
Reagents: long dsRNA against Drosophila genes, about 0.2 µg dsRNA per well of a 384-well plate
Time to read-out: three days of knock-down, then 20 h of DFO before reading
Treatment: desferrioxamine (DFO) at 100 µM, an iron chelator that mimics hypoxia, for 20 h
Measurement: 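Firefly luciferase driven by the mouse ldh-a hypoxia-response element, measured after 20 h of 100 µM DFO; z-scores per plate, higher means more signal lost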
Reading the numbers: z-score: higher = stronger loss of HIF reporter signal

no.	Gene	DRSC id	z-score, replicate 1	z-score, replicate 2
1	ema (endosomal maturation defective)	DRSC14536	-0.2	0.4
2	Lim3	DRSC02475	-0.2	-0.9
3	Lim3	DRSC03363	0.2	1.6
4	Smyd4-1 (SET and MYND domain containing, class 4, member 1)	DRSC06785	-0.3	-0.2
5	CG31467	DRSC16048	-0.3	-0.6
6	CG14598	DRSC12541	-0.1	0.3
7	CG10222	DRSC09714	-0.1	-0.2
8	Cpr65Ax2 + Cpr65Ax1	DRSC10341	-0.3	-0.2
9	Cpr65Ax2 + Cpr65Ax1	DRSC10344	-0.4	-0.9
10	CG33655	DRSC03858	-0.2	0
11	Ir20a (Ionotropic receptor 20a)	DRSC20506	-0.5	-0.2
12	CG33252	DRSC19162	0.1	-0.2
13	sni (sniffer)	DRSC17770	-0.2	-0.3
14	Pfdn1 (Prefoldin 1)	DRSC02325	-0.4	-0.2
15	BobA	DRSC09889	-0.3	0.7
16	Sf3a1 (Splicing factor 3a subunit 1)	DRSC15166	5.4	3.7
17	Ttc26 (Tetratricopeptide repeat domain 26)	DRSC15591	-1	-0.4
18	Bap55 (Brahma associated protein 55kD)	DRSC07000	0	-0.4

Entries above whose gene name starts with L or l (2):
Gene	DRSC id	z-score, replicate 1	z-score, replicate 2
Lim3	DRSC02475	-0.2	-0.9
Lim3	DRSC03363	0.2	1.6

The list goes on.
no.	Gene	DRSC id	z-score, replicate 1	z-score, replicate 2
19	CG32572	DRSC19525	-0.5	-1.3
20	CG32572	DRSC19526	-0.3	-1.2
21	Ir52d (Ionotropic receptor 52d)	DRSC06264	0.1	-0.2
22	CG9067	DRSC07328	-0.5	-0.9
23	Rbp1 (RNA-binding protein 1)	DRSC16817	-0.4	-0.1
24	CG10324	DRSC14230	-0.2	0
25	CSN3 (COP9 signalosome subunit 3)	DRSC11859	3.4	2
26	Lk (Leucokinin)	DRSC10022	-0.1	-0.3
27	RluA-2 (RluA pseudouridine synthase 2)	DRSC02939	-0.2	-0.4
28	cer (crammer)	DRSC05992	-0.3	-0.5
29	CG34007	DRSC01790	-0.5	-0.2
30	mRpL47 (mitochondrial ribosomal protein L47)	DRSC16827	0.9	0.8
31	HP5 (Heterochromatin protein 5)	DRSC19773	-0.3	-0.5
32	CG6978	DRSC18409	-0.3	-0.5
33	FASN3 (Fatty acid synthase 3)	DRSC20882	-0.3	-0.2
34	CG34005	DRSC05700	-0.4	-0.4
